# The list shows a part of the results, in another mix than the full data. Most entries show no effect beyond the scatter of the controls.
# Chains of the proteins cited; added tags and fusions are not shown. Lines headed by an entry give the natural chain unless they say otherwise; changes in a name come on top.
# UniProt P16429: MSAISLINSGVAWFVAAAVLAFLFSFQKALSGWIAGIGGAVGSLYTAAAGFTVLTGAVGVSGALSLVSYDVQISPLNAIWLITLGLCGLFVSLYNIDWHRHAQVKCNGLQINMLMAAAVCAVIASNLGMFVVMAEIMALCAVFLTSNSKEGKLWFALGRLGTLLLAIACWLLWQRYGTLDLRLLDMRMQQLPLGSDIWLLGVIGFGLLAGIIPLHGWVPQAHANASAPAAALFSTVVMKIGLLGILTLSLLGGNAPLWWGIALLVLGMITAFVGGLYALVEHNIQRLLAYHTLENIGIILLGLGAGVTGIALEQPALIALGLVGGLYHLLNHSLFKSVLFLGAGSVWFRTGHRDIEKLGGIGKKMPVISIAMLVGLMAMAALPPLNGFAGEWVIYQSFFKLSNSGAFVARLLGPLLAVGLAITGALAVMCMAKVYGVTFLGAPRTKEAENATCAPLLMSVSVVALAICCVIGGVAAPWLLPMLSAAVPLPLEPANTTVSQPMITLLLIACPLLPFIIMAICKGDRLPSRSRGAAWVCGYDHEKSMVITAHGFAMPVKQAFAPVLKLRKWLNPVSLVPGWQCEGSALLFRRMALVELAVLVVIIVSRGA
# UniProt P15033: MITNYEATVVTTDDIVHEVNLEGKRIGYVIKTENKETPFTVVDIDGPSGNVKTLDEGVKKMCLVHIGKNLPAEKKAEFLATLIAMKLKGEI
# UniProt P0CB62: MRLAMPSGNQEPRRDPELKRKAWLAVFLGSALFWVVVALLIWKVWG
# UniProt P0AF98: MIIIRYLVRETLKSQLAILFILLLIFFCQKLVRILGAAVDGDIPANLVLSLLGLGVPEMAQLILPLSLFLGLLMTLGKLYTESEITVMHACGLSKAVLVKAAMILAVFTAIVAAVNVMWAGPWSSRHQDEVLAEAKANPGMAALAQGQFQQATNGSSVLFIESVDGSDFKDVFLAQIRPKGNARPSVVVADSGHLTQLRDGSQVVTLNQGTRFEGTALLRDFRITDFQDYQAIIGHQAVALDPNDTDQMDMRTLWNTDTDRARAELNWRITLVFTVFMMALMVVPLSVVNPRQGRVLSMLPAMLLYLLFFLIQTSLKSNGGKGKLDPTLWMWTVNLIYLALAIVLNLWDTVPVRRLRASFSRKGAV
# UniProt P0AFW0: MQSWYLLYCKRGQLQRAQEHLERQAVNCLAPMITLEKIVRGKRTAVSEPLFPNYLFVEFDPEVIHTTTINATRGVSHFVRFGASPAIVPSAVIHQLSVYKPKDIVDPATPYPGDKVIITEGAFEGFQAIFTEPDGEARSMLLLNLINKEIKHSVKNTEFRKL
# UniProt P0DN74: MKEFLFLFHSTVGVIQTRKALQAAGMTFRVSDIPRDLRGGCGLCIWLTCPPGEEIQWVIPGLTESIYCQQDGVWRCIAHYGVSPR
# UniProt P15288: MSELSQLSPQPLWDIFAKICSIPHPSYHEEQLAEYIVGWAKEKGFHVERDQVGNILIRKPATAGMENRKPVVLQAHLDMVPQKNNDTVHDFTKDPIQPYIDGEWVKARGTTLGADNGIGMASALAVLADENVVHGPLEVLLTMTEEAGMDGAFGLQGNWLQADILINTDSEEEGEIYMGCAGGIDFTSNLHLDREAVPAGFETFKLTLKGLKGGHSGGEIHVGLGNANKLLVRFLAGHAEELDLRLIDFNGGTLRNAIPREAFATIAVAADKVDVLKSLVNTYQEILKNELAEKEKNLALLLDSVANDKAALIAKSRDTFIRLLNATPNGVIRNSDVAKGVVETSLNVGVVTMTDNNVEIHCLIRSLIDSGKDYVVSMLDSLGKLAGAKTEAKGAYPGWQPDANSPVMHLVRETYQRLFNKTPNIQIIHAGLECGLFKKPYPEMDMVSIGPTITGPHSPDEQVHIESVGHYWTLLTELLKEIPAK
# UniProt P0C077: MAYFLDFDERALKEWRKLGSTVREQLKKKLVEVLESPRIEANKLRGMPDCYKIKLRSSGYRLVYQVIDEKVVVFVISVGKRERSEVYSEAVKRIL
# UniProt P10903: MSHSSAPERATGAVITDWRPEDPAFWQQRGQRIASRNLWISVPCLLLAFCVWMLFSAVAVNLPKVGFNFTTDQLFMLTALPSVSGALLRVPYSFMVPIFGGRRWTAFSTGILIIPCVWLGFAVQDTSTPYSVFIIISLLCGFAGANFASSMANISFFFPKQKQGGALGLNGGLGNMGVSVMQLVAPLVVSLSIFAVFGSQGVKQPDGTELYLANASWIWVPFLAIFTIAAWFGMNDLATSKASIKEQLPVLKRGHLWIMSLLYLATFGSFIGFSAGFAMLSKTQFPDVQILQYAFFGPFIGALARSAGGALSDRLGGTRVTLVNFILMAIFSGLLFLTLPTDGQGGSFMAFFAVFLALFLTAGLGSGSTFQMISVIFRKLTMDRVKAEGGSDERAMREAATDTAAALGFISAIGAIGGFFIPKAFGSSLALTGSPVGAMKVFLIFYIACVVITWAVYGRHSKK
# UniProt P0AGL5: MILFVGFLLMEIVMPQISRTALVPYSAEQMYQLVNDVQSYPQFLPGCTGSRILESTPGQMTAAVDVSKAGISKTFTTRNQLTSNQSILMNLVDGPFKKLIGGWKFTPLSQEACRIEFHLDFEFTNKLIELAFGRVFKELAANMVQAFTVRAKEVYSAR
# Compound: Nc1ncnc2c1ncn2[C@@H]1O[C@H](COP(=O)(O)OP(=O)(O)OP(=O)(O)O)[C@@H](O)[C@H]1O [adenosine 5'-triphosphate]
# Assay: log2 fold change of tryptic peptide abundance, ligand vs vehicle (limited proteolysis) (log2 ratio); higher = more trypsin-susceptible (destabilized)
# Settings: ligand concentration: 5 mM; sample: E. coli desalted lysate; replicate design: treated before aliquoting
# Experimental: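 HT-PELSA: desalted E. coli K-12 BW25113 lysate (with 12 mM MgCl2) incubated with 5 mM ATP (pH 7) or water for 30 min at 25 C, then a 4 min trypsin pulse at 22 C. Peptides were quantified by DIA-MS (4 replicates). Value is the peptide log2 fold change (treated/control); negative = stabilized. Scale: negative = ligand-stabilized region.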
# 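Further: lysate desalted by size exclusion to strip endogenous ATP, peptide intensities built from DIA-NN precursor signals, and peptides missing any value discarded before comparison.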
row,Target,log2 fold change
1,"UniProt P16429 (peptide sequence: LGGIGKK, peptide start residue: 358)",0.167
2,"UniProt P15033 (peptide sequence: TLDEGVKK, peptide start residue: 53)",0.0291
3,"UniProt P0CB62 (peptide sequence: LAMPSGNQEPR, peptide start residue: 3)",0.179
4,"UniProt P0AF98 (peptide sequence: TLWNTDTDR, peptide start residue: 253)",0.691
5,"UniProt P0AFW0 (peptide sequence: SMLLLNLINKEIK, peptide start residue: 139)",0.489
6,"UniProt P0DN74 (peptide sequence: ALQAAGMTFR, peptide start residue: 20)",-0.00512
7,"UniProt P15288 (peptide sequence: LLNATPNGVIR, peptide start residue: 323)",0.526
8,"UniProt P0C077 (peptide sequence: LVYQVIDEK, peptide start residue: 62)",0.626
9,"UniProt P10903 (peptide sequence: VKAEGGSDER, peptide start residue: 385)",-0.243
10,"UniProt P0AGL5 (peptide sequence: AKEVYSAR, peptide start residue: 151)",0.22

# Quoted from the results shown (2 entries):
row,Target,log2 fold change
3,"UniProt P0CB62 (peptide sequence: LAMPSGNQEPR, peptide start residue: 3)",0.179
4,"UniProt P0AF98 (peptide sequence: TLWNTDTDR, peptide start residue: 253)",0.691

# From the supplement of paper PMC12819154, “High-throughput peptide-centric local stability assay extends protein–ligand identification to membrane proteins, tissues and bacteria” (Nature Structural & Molecular Biology, 2025)
